Assay results from publication doi:10.1101/483123.
Results are given in words; binding and its absence hold for the method and conditions named. Binding calls can cover weak binding; strength is not graded here. For some assays here: In cells and extracts the contact can be indirect. For some assays here: Sequences can lack the tags named with a protein.

B1: periplasmically-targeted VSV-G-tagged Hbp35 CTD (domain or fragment, UniProt B2RII3 266-344)
chain: AGQESLDKAEPTATEQIVATPSVKAYVQNGKIVVEEEYSKMEVFNATGQLVKNESLVPGVYVVRITANGVMHFLKVLVP
B2: T25-Hbp35 CTD (C-terminal domain of the Hbp35 hemin-binding protein) (domain or fragment, UniProt B2RII3 266-344)
chain: B1 chain

Assays:
[1] = biological target: full-length FLAG-tagged PorN (Porphyromonas gingivalis ATCC33277) (UniProt B2RLE7); assay: co-IP
[2] = biological target: full-length FLAG-tagged PorM (Porphyromonas gingivalis ATCC33277) (UniProt B2RLE8); assay: co-IP
[3] = biological target: FLAG-tagged PorM periplasmic domain, exported to the periplasm (Porphyromonas gingivalis ATCC33277) (UniProt B2RLE8); assay: co-IP
[4] = biological target: T18 fusion to the PorM periplasmic domain (Porphyromonas gingivalis ATCC33277) (UniProt B2RLE8); assay: two-hybrid
[5] = biological target: T18 fusion to PorN (lacking the signal peptide) (Porphyromonas gingivalis ATCC33277); assay: two-hybrid

| Binder | binding [1] | binding [2] | binding [3] | binding [4] | binding [5] |
| --- | --- | --- | --- | --- | --- |
| B1 | binds | binds | binds | – | – |
| B2 | – | – | – | binds | binds |
